Experimental data published in the supplement of paper PMC10849652.
This is one part of the list.

Amino acid sequences for entries named in this document (tags omitted). A change or cut given only in a name is not applied to a line headed by its entry.
UniProt Q9H6F5: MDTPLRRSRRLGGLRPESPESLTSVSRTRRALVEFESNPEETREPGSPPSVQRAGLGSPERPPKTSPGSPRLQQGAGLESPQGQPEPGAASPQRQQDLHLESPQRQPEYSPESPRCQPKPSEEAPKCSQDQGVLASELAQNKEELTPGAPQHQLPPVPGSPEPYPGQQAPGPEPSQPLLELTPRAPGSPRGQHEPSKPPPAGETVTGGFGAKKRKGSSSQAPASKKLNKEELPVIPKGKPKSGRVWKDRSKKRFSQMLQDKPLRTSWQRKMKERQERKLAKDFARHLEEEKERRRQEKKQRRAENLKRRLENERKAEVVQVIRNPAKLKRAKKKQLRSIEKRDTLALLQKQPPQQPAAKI
UniProt Q4G0I0: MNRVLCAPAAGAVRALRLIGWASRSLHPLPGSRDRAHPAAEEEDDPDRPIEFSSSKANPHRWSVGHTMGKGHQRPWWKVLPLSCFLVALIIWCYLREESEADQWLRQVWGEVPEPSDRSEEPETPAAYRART
UniProt Q96ER9: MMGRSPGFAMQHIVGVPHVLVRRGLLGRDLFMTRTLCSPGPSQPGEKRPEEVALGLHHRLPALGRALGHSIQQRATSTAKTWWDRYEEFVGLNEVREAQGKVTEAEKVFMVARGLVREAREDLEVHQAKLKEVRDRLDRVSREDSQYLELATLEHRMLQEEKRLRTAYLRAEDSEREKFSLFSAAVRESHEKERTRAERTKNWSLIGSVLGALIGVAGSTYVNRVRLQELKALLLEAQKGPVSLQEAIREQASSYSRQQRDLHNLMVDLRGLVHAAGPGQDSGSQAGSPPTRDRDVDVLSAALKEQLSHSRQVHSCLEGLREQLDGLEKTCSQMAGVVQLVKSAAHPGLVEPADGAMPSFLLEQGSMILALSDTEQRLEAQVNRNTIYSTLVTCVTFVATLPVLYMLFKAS
UniProt Q567U6, whole entry, looked up: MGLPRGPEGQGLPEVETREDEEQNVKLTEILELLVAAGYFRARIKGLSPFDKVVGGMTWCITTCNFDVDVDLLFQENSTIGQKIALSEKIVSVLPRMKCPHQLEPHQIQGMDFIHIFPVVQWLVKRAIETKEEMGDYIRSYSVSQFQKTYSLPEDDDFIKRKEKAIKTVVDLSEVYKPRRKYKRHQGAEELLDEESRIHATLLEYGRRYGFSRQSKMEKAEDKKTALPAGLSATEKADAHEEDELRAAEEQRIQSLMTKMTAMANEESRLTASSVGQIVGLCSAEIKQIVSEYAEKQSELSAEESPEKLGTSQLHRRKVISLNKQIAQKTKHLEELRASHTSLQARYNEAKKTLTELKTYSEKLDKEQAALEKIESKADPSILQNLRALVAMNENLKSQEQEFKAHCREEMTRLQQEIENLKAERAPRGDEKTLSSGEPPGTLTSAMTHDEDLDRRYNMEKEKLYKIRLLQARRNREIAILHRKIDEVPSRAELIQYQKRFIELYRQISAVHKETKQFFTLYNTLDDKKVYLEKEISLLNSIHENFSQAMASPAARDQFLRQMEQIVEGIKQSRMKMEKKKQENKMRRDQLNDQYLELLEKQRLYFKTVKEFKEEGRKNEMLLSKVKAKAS
UniProt A6NHX0: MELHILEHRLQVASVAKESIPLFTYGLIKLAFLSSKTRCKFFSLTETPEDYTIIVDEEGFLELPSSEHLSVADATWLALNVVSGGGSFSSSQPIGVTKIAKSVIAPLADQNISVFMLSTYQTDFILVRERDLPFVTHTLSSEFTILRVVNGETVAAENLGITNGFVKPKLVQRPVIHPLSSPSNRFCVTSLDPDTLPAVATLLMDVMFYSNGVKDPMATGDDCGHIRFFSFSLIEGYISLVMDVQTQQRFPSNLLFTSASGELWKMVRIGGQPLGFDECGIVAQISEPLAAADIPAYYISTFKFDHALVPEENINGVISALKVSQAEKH
UniProt O95273: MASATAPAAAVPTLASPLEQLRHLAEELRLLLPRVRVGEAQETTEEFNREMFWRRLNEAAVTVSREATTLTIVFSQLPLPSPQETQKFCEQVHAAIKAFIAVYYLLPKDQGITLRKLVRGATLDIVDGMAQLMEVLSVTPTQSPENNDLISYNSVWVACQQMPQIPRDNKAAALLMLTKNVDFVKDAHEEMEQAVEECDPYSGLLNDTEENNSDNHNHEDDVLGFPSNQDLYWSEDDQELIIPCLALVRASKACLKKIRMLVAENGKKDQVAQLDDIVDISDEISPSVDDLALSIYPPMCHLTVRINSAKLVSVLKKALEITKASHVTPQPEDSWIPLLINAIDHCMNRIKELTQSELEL
UniProt Q7Z6B0: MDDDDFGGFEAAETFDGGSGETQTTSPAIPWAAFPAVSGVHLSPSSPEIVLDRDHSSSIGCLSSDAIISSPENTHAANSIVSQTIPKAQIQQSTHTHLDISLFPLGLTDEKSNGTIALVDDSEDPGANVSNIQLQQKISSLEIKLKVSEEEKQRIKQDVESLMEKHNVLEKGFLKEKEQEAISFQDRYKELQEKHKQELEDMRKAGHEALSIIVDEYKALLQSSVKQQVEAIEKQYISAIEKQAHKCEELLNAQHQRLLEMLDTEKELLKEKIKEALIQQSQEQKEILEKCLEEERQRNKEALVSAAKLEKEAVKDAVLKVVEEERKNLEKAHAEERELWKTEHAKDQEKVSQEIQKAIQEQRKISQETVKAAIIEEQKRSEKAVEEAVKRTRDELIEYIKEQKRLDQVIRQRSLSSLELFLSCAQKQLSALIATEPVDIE
UniProt Q8ND76: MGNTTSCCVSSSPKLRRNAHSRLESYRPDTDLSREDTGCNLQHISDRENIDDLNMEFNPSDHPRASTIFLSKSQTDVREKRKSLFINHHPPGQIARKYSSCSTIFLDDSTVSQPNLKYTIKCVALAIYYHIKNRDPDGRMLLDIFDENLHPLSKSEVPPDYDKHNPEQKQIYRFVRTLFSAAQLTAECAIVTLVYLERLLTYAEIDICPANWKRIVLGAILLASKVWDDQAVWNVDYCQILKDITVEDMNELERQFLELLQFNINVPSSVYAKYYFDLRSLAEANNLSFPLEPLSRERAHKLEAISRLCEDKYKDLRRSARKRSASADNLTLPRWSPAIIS

Tests used:
Assay in all cases: log2 fold change, soluble protein after heating vs DMSO (PISA); higher = thermal stabilisation; K562 lysate, 10 uM; active = over 0.2 and 3.5 SD of the protein, either way, in both replicates (recomputed)
[1] = compound: C1=CC=C(C=C1)[C@H](COC2=CC3=C(C=C2)NC(=O)N3)NC(=O)C4=CC=CN(C4=O)CC5=CC(=C(C=C5)F)F
In short: (§1)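 Dounce homogenisation of K562 pellets in PBS pH 7.4 with 1 mM MgCl2 produced a crude extract, used at 1 mg/mL protein. Exposure to 10 μM compound lasted 30 min, and aliquots were then heated for 3 min across 48°C-58°C, pooled and brought to 0.5% NP-40 at 4°C. The supernatant after 21,000xg for 90 min was quantified by TMTpro 16plex LC-MS/MS with channel sums equalised. Duplicate values are given as log-two fold change in thermal stability relative to solvent controls.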

[2] = compound: CC1=C(SC2=C1C(=N[C@H](C3=NN=C(N32)C)CC(=O)N)C4=CC=C(C=C4)Cl)C
In short: as §1

[3] = compound: CC1=C2C(=CC=C1)N=C(N(C2=O)C3=CC=CC=C3C)CN4C=NC5=C(N=CN=C54)N
In short: as §1

[4] = compound: Cc1sc2c(c1C)C(c1ccc(Cl)cc1)=N[C@@H](CC(=O)OC(C)(C)C)c1nnc(C)n1-2
In short: as §1

[5] = compound: c1ccc([C@@H]2C[C@H]2NC2CCNCC2)cc1
In short: as §1

Measured: log2 fold change

CCDC86 (UniProt Q9H6F5)
inactive: [1] 0.013 | [2] 0.069 | [3] -0.001 | [4] -0.044 | [5] -0.089

CCSMST1 (UniProt Q4G0I0)
inactive: [1] 0.061 | [2] -0.074 | [3] 0.015 | [4] -0.042 | [5] 0.026

CCDC51 (UniProt Q96ER9)
inactive: [1] -0.063 | [2] 0.023 | [3] -0.029 | [4] 0.014 | [5] 0.157

CCDC93 (UniProt Q567U6)
inactive: [1] 0.007 | [2] 0.022 | [3] 0.017 | [4] 0.034 | [5] -0.037

CASTOR2 (UniProt A6NHX0)
inactive: [1] 0.011 | [2] 0.019 | [3] 0.033 | [4] 0.083 | [5] 0.021

CCNDBP1 (UniProt O95273)
inactive: [1] 0.029 | [2] 0.002 | [3] -0.203 | [4] -0.007 | [5] 0.073

CCDC91 (UniProt Q7Z6B0)
inactive: [1] 0.002 | [2] -0.027 | [3] 0 | [4] -0.013 | [5] 0.036

CCNY (UniProt Q8ND76)
inactive: [1] -0.04 | [2] 0.048 | [3] -0.104 | [4] -0.064 | [5] -0.028

CBX4 (UniProt O00257)
inactive: [1] -0.094 | [2] -0.002 | [3] -0.078 | [4] -0.062 | [5] 0.094
